The values below come from publication PMC10482750.

Amino acid sequences for entries named in this document (tags omitted).
UniProt Q9V460: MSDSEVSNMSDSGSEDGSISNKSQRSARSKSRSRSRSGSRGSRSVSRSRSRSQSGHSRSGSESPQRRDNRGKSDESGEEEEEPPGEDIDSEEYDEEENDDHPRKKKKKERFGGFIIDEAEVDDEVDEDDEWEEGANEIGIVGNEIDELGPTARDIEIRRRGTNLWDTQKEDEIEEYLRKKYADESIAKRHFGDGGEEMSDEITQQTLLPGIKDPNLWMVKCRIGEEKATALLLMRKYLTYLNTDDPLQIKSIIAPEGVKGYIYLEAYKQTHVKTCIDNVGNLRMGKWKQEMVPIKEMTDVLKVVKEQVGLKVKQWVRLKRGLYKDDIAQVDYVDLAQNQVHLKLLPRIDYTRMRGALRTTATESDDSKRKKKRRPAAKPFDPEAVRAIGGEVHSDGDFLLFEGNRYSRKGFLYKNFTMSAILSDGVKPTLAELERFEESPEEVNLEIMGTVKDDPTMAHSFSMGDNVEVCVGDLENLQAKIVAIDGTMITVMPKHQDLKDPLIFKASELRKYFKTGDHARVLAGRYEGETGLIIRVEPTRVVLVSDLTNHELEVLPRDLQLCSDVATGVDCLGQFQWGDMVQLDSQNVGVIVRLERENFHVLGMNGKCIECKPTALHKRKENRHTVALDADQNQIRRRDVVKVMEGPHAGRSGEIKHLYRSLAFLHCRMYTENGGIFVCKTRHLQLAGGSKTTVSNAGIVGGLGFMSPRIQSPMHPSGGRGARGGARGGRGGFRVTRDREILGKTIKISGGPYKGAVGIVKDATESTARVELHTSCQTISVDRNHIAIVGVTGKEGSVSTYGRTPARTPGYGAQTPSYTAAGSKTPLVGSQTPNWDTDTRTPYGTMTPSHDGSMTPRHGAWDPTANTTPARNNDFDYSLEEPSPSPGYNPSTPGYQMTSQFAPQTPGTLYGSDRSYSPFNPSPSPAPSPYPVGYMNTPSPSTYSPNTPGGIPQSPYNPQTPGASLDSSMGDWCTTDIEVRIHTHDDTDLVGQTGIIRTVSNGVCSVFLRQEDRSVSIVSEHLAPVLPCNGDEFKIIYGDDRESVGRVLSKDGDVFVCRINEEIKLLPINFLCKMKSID

These are yes or no findings as the source states them, for the method shown. Some results given as binding are weak or reduced against the parent protein; the word gives no strength. Tags and fused reporters may be left off the sequences shown.

Assay [1] addresses Spt5, C-terminal FLAG-tagged (Drosophila) (UniProt Q9V460). Briefly: tandem affinity co-purification; Spt5-FLAG and Spt4-His6 co-expressed in E. coli; Talon metal affinity resin, then anti-FLAG resin; washes with 300 mM NaCl.
Assay [2] concerns the target T1, NELF-D-3x-FLAG (Drosophila) (UniProt Q24134).
T1 sequence: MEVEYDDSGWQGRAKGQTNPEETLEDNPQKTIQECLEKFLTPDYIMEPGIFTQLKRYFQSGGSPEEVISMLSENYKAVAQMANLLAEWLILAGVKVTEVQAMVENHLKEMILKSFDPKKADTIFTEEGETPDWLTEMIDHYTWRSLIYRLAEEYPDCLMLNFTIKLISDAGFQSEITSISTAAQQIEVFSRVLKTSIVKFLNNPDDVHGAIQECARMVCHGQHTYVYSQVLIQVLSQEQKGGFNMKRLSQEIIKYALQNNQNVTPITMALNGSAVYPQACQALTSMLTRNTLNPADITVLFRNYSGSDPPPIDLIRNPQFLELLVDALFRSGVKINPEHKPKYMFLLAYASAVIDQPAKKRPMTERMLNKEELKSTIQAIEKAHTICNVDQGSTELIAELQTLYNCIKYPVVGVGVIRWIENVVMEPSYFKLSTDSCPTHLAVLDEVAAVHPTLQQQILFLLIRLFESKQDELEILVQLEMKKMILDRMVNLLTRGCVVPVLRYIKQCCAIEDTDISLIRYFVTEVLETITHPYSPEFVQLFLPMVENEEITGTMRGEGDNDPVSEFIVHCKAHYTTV
Briefly: tandem affinity co-purification; four NELF subunits co-expressed in Sf9; Ni-NTA (His10-NELF-E), then anti-FLAG resin (NELF-D-3x-FLAG); washes up to 500 mM NaCl, 250 mM KCl and 0.4 M KCl.

For assay [3], the target named is T2, His10-NELF-E (Drosophila) (UniProt P92204).
T2 sequence: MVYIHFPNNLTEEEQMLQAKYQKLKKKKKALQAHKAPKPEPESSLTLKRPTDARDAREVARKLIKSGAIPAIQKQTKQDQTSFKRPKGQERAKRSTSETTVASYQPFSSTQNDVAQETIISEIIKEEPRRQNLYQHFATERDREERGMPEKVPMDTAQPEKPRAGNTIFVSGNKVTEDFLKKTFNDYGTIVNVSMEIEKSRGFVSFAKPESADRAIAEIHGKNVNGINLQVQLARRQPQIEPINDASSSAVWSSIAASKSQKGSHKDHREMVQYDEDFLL
The assay is described as above.

B1: Spt4, C-terminal His6-tagged (protein, UniProt Q9TVQ5 1-116)
chain: MAFDAIPKDLRGLRACLVCSLVKSFDQFETDGCENCEEFLRMKNNKDNVYDHTSNNFDGIIALTTPTDSWVAKWQRLSRFTRGIYAISVSGTLPQSTLRDMKNRGIVYKSRDRSQR
Turning to B1, in assay [1], the binding entry is recorded as “binds”.

B2: His10-NELF-E (protein, UniProt P92204 1-280)
chain: T2 sequence
As for B2, in assay [2], the binding entry was “binds”.

B3: NELF-A (protein, UniProt Q86NP2 1-1251)
chain: MANVRDSDTSLWLHNKLGTSNDSWINGSICSQLNKEVLRNIKECFPDLQTQVKLKLLLSFLHIPRRLVEEWKAELEEVIEVAGLDSELWVSMLAETMKTFPATSSLNTEISDYEDTRPIFIDMVNDLRKLVTKHSDLGMLPLECQYLNKNALISVVGQQPAPVKHFTLKRKPKSAQLRTELLHKSADAQSSLKKASAPTIPLRSRGMPRKMTDTTPLKGIPSRMPTTGFRSATVPGNAAQRPNLSRTPAGRKDGGIKLIEFTEQPLGYAAAKKRKREQQLEEQQKKQEQKQQQAAAAAAAAATAAASNAGDSSPTDAATASGGETPVTPTSANNSFEIKMEPQQLNQSAGSLEEPQDDEMSGKANMECDIETPEYATATLDFAQATSTSVADGQPGKPAVETKLKTPRTPKSAAKLNNNNNNNNNNSFNHTPKRIKQEIEIKSEEIIVPASIKLEKIETSPSTQRVSIQQQPPSLVQRTPHLLIRSSPQKRQNNGATTSAGTTTTTVGNTTIKMEKLDIKPMIRATGVSPSTSAGTTTTLLTPQQLRQAANPLANLPNNISVKITSAKAKAAAAAAATSSGSQTQSQQPQTLQVQQAPQQSHPPLLINSSTPVILASSPSAQRAKALALPSSSTSATTTTTIPSQAIKTMPLSQLKTATNSGPVIISQTIIQPAKRAQQQAGTSSAAAASQQQQQQQSQQQLLHQQIQQQTQQQAQLPQQPQQQQTQYILATPQQQPQQIQQQQQQQQPILPTLTSFSHSRPMPQTTTLYQATTPSGSGQTPTKILLKTSGSSSVVMTPLRQAQPQQATAVVSSNPPPLVATSAAVVSPGQTTLNIQNVQLPNRPVTIQPASQAAQQQHMQAQLQQQQPHPQHTIVANTTATQQPKLSQVLMQPTAAVGTSGVSALNVSPTSGKNKTIILTQKGVILRNIGGDMYQQIPISNVGNMQGLGGTTLMTTTAGPPSLVKTTPSSGVQLQQQQSGKQILPTLIPTSSLGGQHVIVQQQQPTNVIGNSQQQTIIRPVMTNVGGGLTTLPQGLTLIQRPGQQPQLVQVQAAPGSTQRTIITQSNTAAAASQQQPRQQQQQILVQHKPAPTLQQRLVTSTTSGGQGQQGNPNAGLPRTVQVQVQAQQQQQPQQQQATQQQSQQAPQRRGLSLSNEHVHKAHEMFRKANRVSRPDKALILGFMAGLRENPRPNNENVLVIKLGETEEKVQQDNGHTALCLVESHIRLDYNTGEWKTFQNYRLQDQSAAS
For B3, the binding result in assay [3] and in assay [2] was “binds” in each case.
